Out of some 400,000 compounds screened, about 13,000 (3.2%) were called active. The shares of active, inactive and inconclusive entries below differ from those in the screen. The call rests on the fitted dose curve; in most records, active means well fitted cell-killing curve with a large enough effect; inconclusive means small, poorly fitted or top-dose-only effect, or effect the other way; inactive means flat fitted curve, though single readings scatter. Potencies of inconclusive entries are doubtful fits and often do not repeat.
assay: qHTS assay for MDR1-selective chemotherapeutics: Primary screen using the drug-selected MDR subline cells KB-V1; details: KB-V1 MDR cells viability, CellTiter-Glo, 72 h; activity change, negative = cytotoxicity: at 46.1 µM (top of the series); further: nearly all actives have a fitted effect of over 60% in size
Outline: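 Potencies derive from concentration-effect curves fitted to normalized luminescence (CellTiter-Glo) of KB-V1 cells treated for 72 h at 37 degrees C in phenol-red-free DMEM containing 10% FBS.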
On the % scale 0 is the no-effect control and ±100 the full control effect; potency means the concentration at half of the fitted maximal effect.

| SMILES | Potency | activity change, negative = cytotoxicity |
| --- | --- | --- |
| CCCCn1cnc2c(cnn2-c2ccc(Cl)cc2)c1=O | inconclusive: 18.4 µM [cytotoxic, single point] |  |
| O=S1(=O)CC(O)C(NCc2cccnc2)C1 (centres undefined) | inactive |  |
| CCc1ccc(C(O)c2ncc(-c3ccc(C)cc3)[nH]2)cc1 (centres undefined) | inconclusive: 20.6 µM [cytotoxic, single point] |  |
| Cc1cccc(COC[C@H](CC(C)C)N2CCN(C(=O)c3ccc(C(C)(C)C)cc3)CCC2=O)c1 | inconclusive: 23.1 µM [cytotoxic, single point] |  |
| O=C(NCCN1C(=O)S/C(=C\c2ccc(F)cc2)C1=O)C1CCN(S(=O)(=O)c2cccs2)CC1 | inactive |  |
| Cc1ccc2occ(/C=C/C(=O)c3ccccc3O)c(=O)c2c1 | inconclusive: 29.1 µM [cytotoxic, single point] |  |
| COc1ccc(CC(=O)N/N=C/c2c(C)n(C)c3ccccc23)cc1OC | inconclusive: 23.1 µM [cytotoxic, single point] |  |
| CCOc1ccc(N2CC(c3nc4ccccc4n3CCOc3ccccc3)CC2=O)cc1 (centres undefined) | inactive |  |
| Cc1ccc(C(=O)C(C)OC(=O)Cn2[nH]c(=O)c3ccccc3c2=O)cc1 (centres undefined) | inconclusive: 18.4 µM [rising, partial curve, poor fit] |  |
| O=C(Oc1ccc2ccccc2c1Br)N1CCCCCC1 | inconclusive: 18.4 µM [cytotoxic, single point] |  |
| O=C(COc1ccccc1Cl)Nc1ccc2c(c1)OCO2 | inconclusive: 23.1 µM [cytotoxic, single point] |  |
| Fc1ccc(CNC(=S)Nc2cccc(C(F)(F)F)c2)cc1 | active: 20.6 µM |  |
| O=C(c1ccc(Br)o1)N1CCC(Cc2ccccc2)CC1 |  | inconclusive: 0% |
| O=C(Nc1ccc(N2CCOCC2)cc1)c1cccc2c(-c3ccc(F)c(F)c3)coc12 | inactive |  |
| COc1ccc(N2CCN(C(=O)c3cccc(S(=O)(=O)N4CCc5ccccc54)c3)CC2)cc1 | inactive |  |
| CCc1ccc(C(C)NC(=O)c2ccc3c(c2)OCO3)cc1 (centres undefined) | inconclusive: 0.116 µM [rising, full curve] |  |
| CCCCN1CC(N2CCN(C3CCN(C)CC3)CC2)CS1(=O)=O (centres undefined) | inactive |  |
| O=C(Nc1cccc(-c2ccc(N3CCOCC3)nn2)c1)c1ccccc1Cl | inconclusive: 7.31 µM [cytotoxic, partial curve, poor fit] |  |
| CCc1nc(NCc2ccccn2)c2oc3ccccc3c2n1 | inconclusive: 6.51 µM [cytotoxic, partial curve] |  |
| COc1ccc(N2CCN(S(=O)(=O)c3cc(Br)cnc3N)CC2)cc1 | inconclusive: 25.9 µM [rising, single point] |  |
| CC(=O)c1cccc(NC(=O)CSc2ccc(-c3ccco3)nn2)c1 | inconclusive: 23.1 µM [cytotoxic, single point] |  |
| O=C1CCCC2=C1C1(CCCOC1)N=C(Nc1nc3ccccc3o1)N2 (centres undefined) | inconclusive: 32.6 µM [cytotoxic, single point] |  |
| Cc1cccc(NC(=S)N2CCC(N(C)CC3CCCO3)CC2)c1C (centres undefined) | inconclusive: 10.3 µM [cytotoxic, partial curve] |  |

| SMILES | Potency | activity change, negative = cytotoxicity |
| --- | --- | --- |
| COc1cccc2cc(C(=O)NCc3ccccc3Cl)c(=O)oc12 | inconclusive: 20.6 µM [rising, single point] |  |
| Cc1ccc(S(=O)(=O)N2CCN(CC(=O)Nc3ccc(N4CCOCC4)cc3)CC2)cc1C | inconclusive: 8.2 µM [cytotoxic, partial curve, poor fit] |  |
| COc1cccc(NC(=O)Cn2c(=O)n(CCC(=O)NC3CCN(Cc4ccccc4)CC3)c(=O)c3ccccc32)c1 | inactive |  |
| COc1ccc(C2C=C(c3ccccc3)Nc3nc(NC(=O)/C=C/c4ccc(Cl)cc4)nn32)cc1 (centres undefined) | inactive |  |
| COc1cccc(C2C3=C(N=c4s/c(=C\c5cccc(O)c5)c(=O)n42)c2ccccc2CC3)c1OC (centres undefined) | active: 16.4 µM |  |
| CCC1CCCCN1C(=O)c1cc(-c2ccc(Cl)c(Cl)c2)on1 (centres undefined) | active: 20.6 µM |  |
| CCCCNc1c(-c2ccc(SC(C)CC)c(OC)c2)nc2ccc(C)cn12 (centres undefined) | inconclusive: 29.1 µM [cytotoxic, single point] |  |
| COc1cccc(Nc2c3c(nc4c(-c5ccccc5)c(C)nn24)CCC3)c1 | active: 18.4 µM |  |
| COC(=O)c1ccccc1NC(=O)CSc1nncn1C | inconclusive: 11.6 µM [rising, partial curve] |  |
| Cc1ccc(S(=O)(=O)N2CCN(C(=O)COC(=O)C3CCC3)CC2)c(C)c1 | inactive |  |
| Cc1nc2ncnn2c(C)c1CCC(=O)NCc1cccc(Cl)c1 | inactive |  |
| CSc1ccc(C(=O)C2CCCN(C(=O)c3cccnc3SC)C2)cc1 (centres undefined) | inconclusive: 11.6 µM [cytotoxic, partial curve] |  |
| Cc1[nH]n(-c2ccc([N+](=O)[O-])cc2)c(=O)c1C=NCCN1CCN(C(=O)c2ccccc2F)CC1 | inconclusive: 23.1 µM [cytotoxic, partial curve] |  |
| COc1ccc2c(c1)CCC(=O)[C@H](O)C[C@H](c1ccccc1)OC2=O | inactive |  |
| CCOc1ccccc1NC(=O)CSC1=C(C#N)C(c2ccco2)C(C(=O)Nc2nc3ccccc3s2)=C(C)N1 (centres undefined) | inactive |  |
| COc1cccc(OC)c1C(=O)Nc1c(C(=O)N2CCN(C)CC2)oc2ccccc12 | inactive |  |
| O=C(NCc1ccccc1)c1ccc(Cn2cc(C(F)(F)F)ccc2=O)cc1 | active: 13 µM |  |
| CN(C)CC(=O)c1ccc(-c2ccccc2)cc1 | inconclusive: 17.8 µM [rising, single point] |  |
| COc1ccc(N2C(=O)CC(N(CCc3ccc(OC)c(OC)c3)C(=S)Nc3ccccc3)C2=O)cc1 (centres undefined) | inactive |  |
| O=C(Nc1cccc(O)c1)c1cccc(S(=O)(=O)N2CCCC2)c1 | inconclusive: 29.1 µM [cytotoxic, single point] |  |
| COc1ccc(OCc2cc(C(=O)N(C)Cc3cc(C4CC4)n[nH]3)no2)c(Cl)c1 |  | inconclusive: -24.9% |
| CCC(=O)N1CCc2cc(S(=O)(=O)CCC(=O)NCc3ccc(OC)cc3)ccc21 | inconclusive: 20.6 µM [rising, single point] |  |
| O=C(NC1CC(=O)N(c2ccc3c(c2)OCCO3)C1)N1CCC(O)CC1 (centres undefined) | inconclusive: 29.1 µM [rising, single point] |  |

Some of the entries so far, with each value named:
O=C(Nc1cccc(-c2ccc(N3CCOCC3)nn2)c1)c1ccccc1Cl
  Potency: inconclusive: 7.31 µM [cytotoxic, partial curve, poor fit]
CCc1nc(NCc2ccccn2)c2oc3ccccc3c2n1
  Potency: inconclusive: 6.51 µM [cytotoxic, partial curve]
COc1ccc(N2CCN(S(=O)(=O)c3cc(Br)cnc3N)CC2)cc1
  Potency: inconclusive: 25.9 µM [rising, single point]
CC(=O)c1cccc(NC(=O)CSc2ccc(-c3ccco3)nn2)c1
  Potency: inconclusive: 23.1 µM [cytotoxic, single point]

More compounds.

| SMILES | Potency | activity change, negative = cytotoxicity |
| --- | --- | --- |
| O=C(NCCNC1CCC(c2ccccc2)CC1)c1ccc(F)cc1 (centres undefined) | inconclusive: 20.6 µM [cytotoxic, single point] |  |
| COc1ccc(C(NC(=O)c2ccc(F)cc2)c2ccccc2)cc1 (centres undefined) | inconclusive: 14.6 µM [cytotoxic, partial curve] |  |
| Cc1ccc(CCCNC(=O)C2CCC(=O)N(Cc3cccc(F)c3)C2)cc1 (centres undefined) | inconclusive: 29.1 µM [cytotoxic, single point] |  |
| CCN(CC)S(=O)(=O)c1ccc(Cl)c(C(=O)OCC(=O)c2c(N)n(C)c(=O)n(C)c2=O)c1 | inconclusive: 14.6 µM [cytotoxic, single point] |  |
| Cc1ccc(Cl)cc1NC(=O)CSc1nnc(C)n1-c1ccccc1 | inconclusive: 14.6 µM [cytotoxic, single point] |  |
| COc1cccc2cc(C(=O)OCC(=O)NCc3ccc4c(c3)OCO4)c(=O)oc12 | inactive |  |
| CCOC(=O)C1(CCOc2ccccc2)CCN(Cc2ccc(NC(C)=O)cc2)CC1 | inconclusive: 9.2 µM [cytotoxic, partial curve, poor fit] |  |
| N#Cc1c(Nc2ccccc2)s[nH]c1=O | inconclusive: 29.1 µM [rising, single point] |  |
| CCc1ccc(NC(=O)CS(=O)CC(=O)Nc2ccc(N3CCOCC3)cc2)cc1 (centres undefined) | inconclusive: 20.6 µM [rising, single point] |  |
| CCOC(=O)c1sc(N/N=C/c2cc(Br)c(O)c(OC)c2)nc1C | inconclusive: 25.9 µM [cytotoxic, single point] |  |
| CC(C)NC(=O)Nc1ccc2c(c1)C(=O)N([C@H](C)CO)C[C@H](C)[C@@H](CN(C)S(=O)(=O)c1cccs1)O2 | inconclusive: 9.2 µM [rising, partial curve, poor fit] |  |
| COc1ccc(C)cc1Nc1n[n+](-c2ccccc2)c(-c2ccc(OC)c(OC)c2OC)s1 | inactive |  |
| O=C(CC1C(=O)NCCN1C/C=C/c1ccccc1)NCCCC1CCCC1 (centres undefined) | inconclusive: 23.1 µM [cytotoxic, single point] |  |
| COc1ccc(-c2cnc3c(-c4ccc(F)cc4)cnn3c2N)cc1 | inactive |  |
| Cc1ccc(C(=O)Nc2cccc(NC(=O)c3ccc(C)c([N+](=O)[O-])c3)n2)cc1[N+](=O)[O-] | inconclusive: 4.11 µM [cytotoxic, partial curve, poor fit] |  |
| O=C(N/N=C\C=C\c1ccco1)C1COc2ccccc2O1 (centres undefined) | inconclusive: 3.26 µM [rising, partial curve] |  |
| CC1CCN(CCOCCOc2ccc(Cl)cc2Br)CC1 | inconclusive: 23.1 µM [cytotoxic, partial curve] |  |
| COc1ccc(N/C=C(\C#N)c2nc3ccccc3n2C)c(OC)c1 | active: 20.6 µM |  |
| CCC(C)NCC(=O)Nc1ccc(-c2nc3cc(NC(=O)CNC(C)CC)ccc3o2)cc1 (centres undefined) | inconclusive: 20.6 µM [cytotoxic, single point] |  |
| CC1CCCCN1C(=O)COc1ccccc1F (centres undefined) | inconclusive: 2.06 µM [rising, full curve, poor fit] |  |
| O=C(Nc1ccc2nc3n(c(=O)c2c1)CCCC3)c1cccnc1Cl | inactive |  |
| CC1(C)NC(=O)N(CCCOc2ccccc2Br)C1=O | inconclusive: 16.4 µM [cytotoxic, single point] |  |
| O=C(Nc1ccccc1)Nc1ccc(Cl)nc1Cl | inconclusive: 10.3 µM [cytotoxic, partial curve, poor fit] |  |
